Results deposited as PubChem BioAssay AID1224830 (NIAID, 2016)

Test: 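Host factors that control LPS-induced TNF expression in human macrophages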 (primary screen)
Cell system: human THP-1 monocytic leukaemia cells, TNF dual-luciferase reporter clone, PMA-differentiated to macrophage-like cells
Reagents: siRNA pool against human genes, 50 nM
Timing: LPS for 4 h, given about 3 days after siRNA transfection
Treatment: bacterial LPS (TLR4 ligand), 10 ng/ml
Read-out: 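TNF firefly reporter luminescence divided by renilla, normalised to the plate median, then turned into a robust z-score for each replicate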
Direction: TNF reporter robust z-score: higher = stronger TNF reporter response to LPS
Hit rule: 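a well is active when its z-score exceeds 2.8 or falls below -1.5; control wells carry no call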
Here is a random part of about 18,000 reagents. In the full data, about 2,900 (16%) got an active call. 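Calls are made per well; low scores hint the gene aids the LPS response, high scores that it dampens it.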 Repeated entries: four replicate wells of each siRNA pool.

no.	Target gene	TNF reporter robust z-score	activity call
1	SNCB	-0.88	inactive
2	SNCB	-0.02	inactive
3	SNCB	-0.18	inactive
4	SNCB	1.48	inactive
5	UPK1A	-0.17	inactive
6	UPK1A	3.66	active
7	UPK1A	0.88	inactive
8	UPK1A	1.12	inactive
9	TUT4	0.06	inactive
10	TUT4	-0.33	inactive
11	TUT4	0.51	inactive
12	TUT4	0.45	inactive
13	PCSK1	-0.82	inactive
14	PCSK1	-0.12	inactive
15	PCSK1	-0.06	inactive
16	PCSK1	1.31	inactive
17	ZSCAN9	-0.92	inactive
18	ZSCAN9	1	inactive
19	ZSCAN9	0.53	inactive
20	ZSCAN9	-1.1	inactive
21	SPACA5B	-0.57	inactive
22	SPACA5B	0.39	inactive
23	SPACA5B	-0.65	inactive
24	SPACA5B	0.19	inactive
25	COX4I1	-0.99	inactive
26	COX4I1	-0.55	inactive
27	COX4I1	-1.03	inactive
28	COX4I1	-0.33	inactive
29	ADAM10	0.85	inactive
30	ADAM10	2.52	inactive
31	ADAM10	0.29	inactive
32	ADAM10	0.56	inactive
33	GOSR1	0.17	inactive
34	GOSR1	0.61	inactive
35	GOSR1	-0.28	inactive
36	GOSR1	-1	inactive
37	AP1G2	0.31	inactive
38	AP1G2	0.57	inactive
39	AP1G2	0.59	inactive
40	AP1G2	1.18	inactive
41	PLCH2	-0.2	inactive
42	PLCH2	0.58	inactive
43	PLCH2	0.52	inactive
44	PLCH2	0.53	inactive
45	LTBR	0.11	inactive
46	LTBR	0.89	inactive
47	LTBR	1.12	inactive
48	LTBR	1.06	inactive

Copied from the entries so far for reference:
no.	Target gene	TNF reporter robust z-score	activity call
5	UPK1A	-0.17	inactive
6	UPK1A	3.66	active
7	UPK1A	0.88	inactive
8	UPK1A	1.12	inactive
